From patent US10376520B2, “Methods for the treatment of cardiovascular disorders” (Galapagos NV, priority 2015, dated 2019)
The source gives many values for each of these; only a part stands here.

Tested on: RA patients
Assay: Total cholesterol determination, Study 2 (RA patients, monotherapy with Compound 1)
Format: in vivo, human
Text: Randomized, double-blind, placebo-controlled, multicenter, phase IIb dose finding study of Compound 1 (dosed as a [Compound 1:HCl:3H2O]) administered for 24 weeks as monotherapy to subjects with moderately to severely active rheumatoid arthritis who have an inadequate response to methotrexate alone
Double-blind, placebo-controlled, monotherapy study in subjects with moderately to severely active RA who have an inadequate response to methotrexate (MTX) (oral or parenteral).
280 subjects randomized to one of 3 doses of Compound 1 (dosed as a [Compound 1:HCl:3H2O]) or to placebo, given once daily (q.d.).
Twelve weeks of treatment with Compound 1 (dosed as a [Compound 1:HCl:3H2O]) at 50 mg, 100 mg, or 200 mg q.d.; or placebo. At Week 12, all subjects on placebo and the subjects on the 50 mg dose who have not achieved 20% improvement in swollen joint count (SJC66) and tender joint count (TJC68) will be assigned to 100 mg q.d. in a blinded fashion and will continue treatment until Week 24. Subjects in the other groups will maintain their randomized treatment until Week 24.
This method is based on the determination of Δ^4 cholestenone after enzymatic cleavage of the cholesterol ester by cholesterol esterase, conversion of cholesterol by cholesterol oxidase, and subsequent measurement by the Trinder reaction of the hydrogen peroxide formed (Allain et al., 1974).
Cholesterol esters are cleaved by the action of cholesterol esterase to yield free cholesterol and fatty acids. Cholesterol oxidase then catalyzes the oxidation of cholesterol to cholest-4-en-3-one and hydrogen peroxide. In the presence of peroxidase, the hydrogen peroxide formed effects the oxidative coupling of phenol and 4-aminophenazone to form a red quinone-imine dye. The color intensity of the dye formed is directly proportional to the cholesterol concentration. It is determined by measuring the increase in absorbance.
Human serum and plasma samples cholesterol determination was done on a Roche/Hitachi Cobas c 701/702 system which automatically calculate the analyte concentration of each sample.

## O=C(Nc1nc2cccc(-c3ccc(CN4CCS(=O)(=O)CC4)cc3)n2n1)C1CC1 [Compound 1, cyclopropanecarboxylic acid {5-[4-(1,1-dioxo-thiomorpholin-4-ylmethyl)-phenyl]-[1,2,4]triazolo[1,5-a]pyridin-2yl}-amide]
Study 2 12 weeks results, 50 mg q.d., week 1
  [Total cholesterol] Mean CFB: 0.058 mmol/L
Study 2 12 weeks results, 50 mg q.d., week 2
  [Total cholesterol] Mean CFB: -0.021 mmol/L
Study 2 12 weeks results, 50 mg q.d., week 4
  [Total cholesterol] Mean CFB: 0.113 mmol/L
Study 2 12 weeks results, 50 mg q.d., week 8
  [Total cholesterol] Mean CFB: 0.252 mmol/L
Study 2 12 weeks results, 50 mg q.d., week 12
  [Total cholesterol] Mean CFB: 0.184 mmol/L
Study 2 12 weeks results, 100 mg q.d., week 1
  [Total cholesterol] Mean CFB: 0.191 mmol/L
Study 2 12 weeks results, 100 mg q.d., week 2
  [Total cholesterol] Mean CFB: 0.214 mmol/L
Study 2 12 weeks results, 100 mg q.d., week 4
  [Total cholesterol] Mean CFB: 0.369 mmol/L
Study 2 12 weeks results, 100 mg q.d., week 8
  [Total cholesterol] Mean CFB: 0.335 mmol/L
Study 2 12 weeks results, 100 mg q.d., week 12
  [Total cholesterol] Mean CFB: 0.517 mmol/L
Study 2 12 weeks results, 200 mg q.d., week 1
  [Total cholesterol] Mean CFB: 0.279 mmol/L
Study 2 12 weeks results, 200 mg q.d., week 2
  [Total cholesterol] Mean CFB: 0.375 mmol/L
Study 2 12 weeks results, 200 mg q.d., week 4
  [Total cholesterol] Mean CFB: 0.418 mmol/L
Study 2 12 weeks results, 200 mg q.d., week 8
  [Total cholesterol] Mean CFB: 0.460 mmol/L
Study 2 12 weeks results, 200 mg q.d., week 12
  [Total cholesterol] Mean CFB: 0.581 mmol/L
Study 2 24 weeks results, 50 mg q.d. non responders switching to 100 mg q.d. at week 12, week 1
  [Total cholesterol] Mean CFB: 0.264 mmol/L
Study 2 24 weeks results, 50 mg q.d. non responders switching to 100 mg q.d. at week 12, week 2
  [Total cholesterol] Mean CFB: 0.165 mmol/L
Study 2 24 weeks results, 50 mg q.d. non responders switching to 100 mg q.d. at week 12, week 4
  [Total cholesterol] Mean CFB: 0.359 mmol/L
Study 2 24 weeks results, 50 mg q.d. non responders switching to 100 mg q.d. at week 12, week 8
  [Total cholesterol] Mean CFB: 0.237 mmol/L
Study 2 24 weeks results, 50 mg q.d. non responders switching to 100 mg q.d. at week 12, week 12
  [Total cholesterol] Mean CFB: 0.253 mmol/L
Study 2 24 weeks results, 50 mg q.d. non responders switching to 100 mg q.d. at week 12, week 16
  [Total cholesterol] Mean CFB: 0.454 mmol/L
Study 2 24 weeks results, 50 mg q.d. non responders switching to 100 mg q.d. at week 12, week 20
  [Total cholesterol] Mean CFB: 0.395 mmol/L
Study 2 24 weeks results, 50 mg q.d. non responders switching to 100 mg q.d. at week 12, week 24
  [Total cholesterol] Mean CFB: 0.532 mmol/L
Study 2 24 weeks results, 50 mg q.d. responders, week 1
  [Total cholesterol] Mean CFB: 0.003 mmol/L
Study 2 24 weeks results, 50 mg q.d. responders, week 2
  [Total cholesterol] Mean CFB: -0.071 mmol/L
Study 2 24 weeks results, 50 mg q.d. responders, week 4
  [Total cholesterol] Mean CFB: 0.047 mmol/L
Study 2 24 weeks results, 50 mg q.d. responders, week 8
  [Total cholesterol] Mean CFB: 0.257 mmol/L
Study 2 24 weeks results, 50 mg q.d. responders, week 12
  [Total cholesterol] Mean CFB: 0.165 mmol/L
Study 2 24 weeks results, 50 mg q.d. responders, week 16
  [Total cholesterol] Mean CFB: 0.267 mmol/L
Study 2 24 weeks results, 50 mg q.d. responders, week 20
  [Total cholesterol] Mean CFB: 0.089 mmol/L
Study 2 24 weeks results, 50 mg q.d. responders, week 24
  [Total cholesterol] Mean CFB: 0.117 mmol/L
Study 2 24 weeks results, 100 mg q.d., week 1
  [Total cholesterol] Mean CFB: 0.191 mmol/L
Study 2 24 weeks results, 100 mg q.d., week 2
  [Total cholesterol] Mean CFB: 0.214 mmol/L
Study 2 24 weeks results, 100 mg q.d., week 4
  [Total cholesterol] Mean CFB: 0.369 mmol/L
Study 2 24 weeks results, 100 mg q.d., week 8
  [Total cholesterol] Mean CFB: 0.335 mmol/L
Study 2 24 weeks results, 100 mg q.d., week 12
  [Total cholesterol] Mean CFB: 0.517 mmol/L
Study 2 24 weeks results, 100 mg q.d., week 16
  [Total cholesterol] Mean CFB: 0.505 mmol/L
Study 2 24 weeks results, 100 mg q.d., week 20
  [Total cholesterol] Mean CFB: 0.439 mmol/L
Study 2 24 weeks results, 100 mg q.d., week 24
  [Total cholesterol] Mean CFB: 0.529 mmol/L
Study 2 24 weeks results, 200 mg q.d., week 1
  [Total cholesterol] Mean CFB: 0.279 mmol/L
Study 2 24 weeks results, 200 mg q.d., week 2
  [Total cholesterol] Mean CFB: 0.375 mmol/L
Study 2 24 weeks results, 200 mg q.d., week 4
  [Total cholesterol] Mean CFB: 0.418 mmol/L
Study 2 24 weeks results, 200 mg q.d., week 8
  [Total cholesterol] Mean CFB: 0.460 mmol/L
Study 2 24 weeks results, 200 mg q.d., week 12
  [Total cholesterol] Mean CFB: 0.581 mmol/L
Study 2 24 weeks results, 200 mg q.d., week 16
  [Total cholesterol] Mean CFB: 0.517 mmol/L
Study 2 24 weeks results, 200 mg q.d., week 20
  [Total cholesterol] Mean CFB: 0.504 mmol/L
Study 2 24 weeks results, 200 mg q.d., week 24
  [Total cholesterol] Mean CFB: 0.581 mmol/L
Study 2 24 weeks results, placebo switching to 100 mg q.d. at week 12, week 16
  [Total cholesterol] Mean CFB: 0.241 mmol/L
Study 2 24 weeks results, placebo switching to 100 mg q.d. at week 12, week 20
  [Total cholesterol] Mean CFB: 0.340 mmol/L
Study 2 24 weeks results, placebo switching to 100 mg q.d. at week 12, week 24
  [Total cholesterol] Mean CFB: 0.317 mmol/L
